{"sequences": {"note": "Chains of the proteins cited; added tags and fusions are not shown.", "UniProt Q924T3": "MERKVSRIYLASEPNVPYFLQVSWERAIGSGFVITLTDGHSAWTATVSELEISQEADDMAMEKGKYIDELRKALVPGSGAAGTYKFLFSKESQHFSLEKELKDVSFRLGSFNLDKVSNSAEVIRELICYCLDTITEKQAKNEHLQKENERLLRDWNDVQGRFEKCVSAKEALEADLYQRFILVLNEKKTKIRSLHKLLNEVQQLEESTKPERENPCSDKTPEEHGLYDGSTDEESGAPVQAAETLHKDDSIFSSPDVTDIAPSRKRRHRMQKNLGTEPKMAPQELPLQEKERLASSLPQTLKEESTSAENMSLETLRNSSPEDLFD"}, "source": "paper PMC11754673", "key": {"[1]": {"biological_target": "T1, mouse DNA ligase 4 (Lig4) K273S, C-terminal poly His tag (mouse) (UniProt Q8BTF7)", "T1 sequence": "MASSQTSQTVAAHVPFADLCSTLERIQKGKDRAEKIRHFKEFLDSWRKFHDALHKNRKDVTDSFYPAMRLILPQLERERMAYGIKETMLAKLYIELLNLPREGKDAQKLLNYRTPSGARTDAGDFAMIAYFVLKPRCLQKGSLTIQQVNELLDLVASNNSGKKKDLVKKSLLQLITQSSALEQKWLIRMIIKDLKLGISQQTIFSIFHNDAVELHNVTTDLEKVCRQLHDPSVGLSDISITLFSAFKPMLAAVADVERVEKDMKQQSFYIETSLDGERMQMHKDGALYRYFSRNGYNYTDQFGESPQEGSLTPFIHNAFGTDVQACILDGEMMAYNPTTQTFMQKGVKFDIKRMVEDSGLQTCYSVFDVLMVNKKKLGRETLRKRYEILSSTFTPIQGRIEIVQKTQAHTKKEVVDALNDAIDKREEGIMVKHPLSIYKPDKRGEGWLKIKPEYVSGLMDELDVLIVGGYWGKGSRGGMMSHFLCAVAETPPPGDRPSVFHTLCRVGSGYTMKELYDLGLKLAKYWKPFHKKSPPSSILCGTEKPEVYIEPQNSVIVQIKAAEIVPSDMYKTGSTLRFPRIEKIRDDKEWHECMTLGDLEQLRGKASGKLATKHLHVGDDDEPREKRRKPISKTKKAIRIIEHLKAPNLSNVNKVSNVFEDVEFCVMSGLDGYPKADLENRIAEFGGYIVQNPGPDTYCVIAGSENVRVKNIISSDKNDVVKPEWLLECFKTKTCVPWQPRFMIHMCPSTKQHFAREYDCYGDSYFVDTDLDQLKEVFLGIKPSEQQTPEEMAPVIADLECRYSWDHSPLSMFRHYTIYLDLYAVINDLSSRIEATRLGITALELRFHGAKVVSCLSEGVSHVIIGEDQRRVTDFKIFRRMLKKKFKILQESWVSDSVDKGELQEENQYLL", "assay": "co-purification (Ni-NTA, sepharose Q); Lig4 with a C-terminal poly His tag and untagged XRCC4 co-expressed in E. coli Rosetta 2 (pLysS), induced at 15°C for 16 h; complex purified by Ni-NTA followed by sepharose Q chromatography"}, "[2]": {"biological_target": "T2, mouse DNA ligase 4 (Lig4) wild type, C-terminal poly His tag (mouse) (UniProt Q8BTF7)", "T2 sequence": "T1 sequence with S273K", "assay": "co-purification (Ni-NTA, sepharose Q); Lig4 with a C-terminal poly His tag and untagged XRCC4 co-expressed in E. coli Rosetta 2 (pLysS), induced at 15°C for 16 h; complex purified by Ni-NTA followed by sepharose Q chromatography"}}, "note": "Residue numbers refer to the chain shown, from its start. Results are given in words; binding and its absence hold for the method and conditions named. Some binding calls cover weakened binding; strength is not graded here. Sequences can lack the tags named with a protein.", "data": [{"substance": "mouse XRCC4, untagged (from UniProt Q924T3 1-326)", "values": [{"measurement": "binding", "setting": "[1]", "value": "binds"}, {"measurement": "binding", "setting": "[2]", "value": "binds"}]}]}
